We go through 25 compounds from PubChem BioAssay (NCATS).

Some of the results follow. The main result of the screen is listed elsewhere. These columns were measured beside it and carry no call. Most of these compounds were active or inconclusive in the main read-out, so they are no random draw. Words in brackets tell the shape of the fitted curve; partial curves, single points and poor fits give uncertain potencies.

A short description of this assay: qHTS for identification of novel therapeutic agents for treatment of microphthalmiaassociated transcription factor (MiT) renal cell carcinoma (RCC) (AID 1963991). The conditions noted are these: CellTiter-Glo, 48 h; for z-score: stronger effect = lower value. Put shortly: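 UOK109/UOK124/UOK145 (TFE3 fusions, three partners); 500 cells/well; MIPE v4.0, 1912 cpds, 11 conc.; 48 h, 37 C; CellTiter-Glo, 15 min RT; lum. Norm.: DMSO 100%, empty 0%.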
(In general: Quantitative high-throughput screening tests each substance at several concentrations.)

[1] abbreviates: TFE3-RCC UOK109 viability, measured here: UOK109 Z-AUC.
Setting [2] is: TFE3-RCC viability, measured here: UOK124 Z-AUC.
The mark [3] stands for this setting: TFE3-RCC viability, measured here: UOK145 Z-AUC.
Setting [4] is: TFE3-RCC viability, measured here: UOK145 cell viability.
The mark [5] stands for this setting: TFE3-RCC viability, measured here: UOK124 cell viability.

Turning to `CCCCCCCCCC(=O)N[C@@H](Cc1c[nH]c2ccccc12)C(=O)N[C@H](CC(N)=O)C(=O)N[C@@H](CC(=O)O)C(=O)N[C@@H]1C(=O)NCC(=O)N[C@@H](CCCN)C(=O)N[C@@H](CC(=O)O)C(=O)N[C@H](C)C(=O)N[C@@H](CC(=O)O)C(=O)NCC(=O)N[C@H](CO)C(=O)N[C@@H]([C@@H](C)CC(=O)O)C(=O)N[C@@H](CC(=O)c2ccccc2N)C(=O)O[C@@H]1C`, the z-score under setting [1] was found to be 0.505, the z-score under setting [2] was 0.955 and the z-score under setting [3] came out at 0.571.

In the case of `COc1ccc(-c2coc3cc(O)cc(O)c3c2=O)cc1`, the z-score is 0.208 under setting [1], 0.596 under setting [2] and 0.651 under setting [3].

Turning to `COc1ccc(C2(C#N)CCC(C(=O)O)CC2)cc1OC1CCCC1` (stereo unspecified), the z-score runs as follows: under setting [1], 0.41; under setting [2], 0.748; under setting [3], 0.646.

As for `O=C(O)CCC=CCC[C@@H]1[C@H](N2CCCCC2)[C@@H](O)C[C@@H]1OCc1ccc(-c2ccccc2)cc1`, the z-score reads like this: under setting [1], 0.464; under setting [2], 0.412; under setting [3], 0.585.

The compound `CC(=O)O[C@@]12CO[C@H]1C[C@H](O)[C@@]1(C)C(=O)[C@H](O)C3=C(C)[C@@H](OC(=O)C(O)[C@@H](NC(=O)OC(C)(C)C)c4ccccc4)C[C@@](O)([C@@H](OC(=O)c4ccccc4)[C@@H]21)C3(C)C` (stereo partly specified) had a z-score under setting [1] of -2.49, a z-score under setting [2] of -0.587 and a z-score under setting [3] of -1.64.

In the case of `O=C(C[C@@H]1CC=CCCC(=O)O[C@H](c2ccccc2)CNC1=O)NCc1ccc(Cl)cc1`, the z-score is -0.788 under setting [1], 0.165 under setting [2] and 0.508 under setting [3].

By AC50 is commonly meant the midpoint of the concentration-response curve, whichever way the signal moves. With `OCc1ccc(-c2ccc(-c3ccc(CO)s3)o2)s1`, the z-score runs as follows: under setting [1], -2.15; under setting [2], 0.754; under setting [3], -1.25. Moreover, the AC50 under setting [4] is 23.5 µM [falling, single point].

The compound `CC1(C)O[C@@H]2C[C@H]3[C@@H]4CCC5=CC(=O)C=C[C@]5(C)[C@@H]4[C@@H](O)C[C@]3(C)[C@]2(C(=O)CO)O1` showed a z-score under setting [1] of 0.485, a z-score under setting [2] of 0.717 and a z-score under setting [3] of 1.05. Further, under setting [4], the AC50 is 23.5 µM [falling, partial curve, poor fit].

Consider `O=C1Nc2ccc(Cl)cc2C(C#CC2CC2)(C(F)(F)F)O1` (stereo unspecified), for which the z-score is 0.136 under setting [1], -0.684 under setting [2] and -0.132 under setting [3]. Under setting [5], the half-maximal activity concentration (AC50) was 26.4 µM [falling, single point].

`CCOC(=O)c1c(C)n(C)c2ccc(O)cc12`: the z-score amounted to 1.94 under setting [1], 0.577 under setting [2] and 0.423 under setting [3]. For the same compound, the AC50 under setting [4] was 20.9 µM [falling, partial curve, poor fit].

Turning to `N#Cc1ccc(NC(=O)Nc2ccccc2Br)c2n[nH]nc12`, the z-score is, setting by setting: under setting [1], -0.0561; under setting [2], 0.714; under setting [3], 0.234. Under setting [4], the AC50 is 33.2 µM [falling, single point].

`COC[C@@H](c1ccc(C(F)(F)F)cc1)N1CCN(C2(C)CCN(C(=O)c3c(C)ncnc3C)CC2)C[C@H]1C` registered a z-score under setting [1] of 0.0911, a z-score under setting [2] of 0.221 and a z-score under setting [3] of -0.039. Further, the concentration at half-maximal activity (AC50) under setting [4] is 14.8 µM [falling, partial curve].

For `CC1(C)CC(O)CC(C)(C)N1[O]`, the z-score reads like this: under setting [1], 1.13; under setting [2], 0.37; under setting [3], -0.31. Under setting [4], the AC50 is 1.66 µM [falling, full curve].

As for `O=S(=O)(O)CCSSCCS(=O)(=O)O`, the z-score runs as follows: under setting [1], -0.897; under setting [2], 0.68; under setting [3], -0.728. Besides, the concentration at half-maximal activity (AC50) under setting [4] was 0.0166 µM [rising, full curve].

As to `COc1ccc(-c2oc3c(CC=C(C)C)c(O)cc(O)c3c(=O)c2O)cc1`, the z-score reads like this: under setting [1], -0.506; under setting [2], 0.177; under setting [3], 0.517. Under setting [5], the AC50 was 2.35 µM [falling, partial curve, poor fit].

For `CCCCn1c(=O)n(Cc2ccccc2F)c(=O)c2[nH]c(Cc3ccc(NC(C)=O)cc3)nc21`, the z-score is -0.0358 under setting [1], -0.125 under setting [2] and -0.264 under setting [3]. Also, the AC50 under setting [5] was 2.96 µM [falling, partial curve, poor fit].

`CCC(=O)NCC[C@@H]1CCc2ccc3c(c21)CCO3`: the z-score was found to be 0.687 under setting [1], 0.58 under setting [2] and 0.825 under setting [3].

Regarding `CC1CNc2c(cccc2S(=O)(=O)N[C@@H](CCCN=C(N)N)C(=O)N2CC[C@@H](C)C[C@@H]2C(=O)O)C1` (stereo partly specified), the z-score was 0.0397 under setting [1], 0.725 under setting [2] and 0.331 under setting [3]. The AC50 under setting [4] was 13.2 µM [falling, partial curve].

For the compound `CC(C)(OCc1nn(Cc2ccccc2)c2ccccc12)C(=O)O`, the z-score is, setting by setting: under setting [1], 0.915; under setting [2], 0.538; under setting [3], 0.506. The concentration at half-maximal activity (AC50) under setting [4] is 26.4 µM [falling, single point].

With `N=C(N=C(N)N)N1CCOCC1`, the z-score was determined as 1.01 under setting [1], 0.86 under setting [2] and 1.43 under setting [3]. For the same compound, the AC50 under setting [4] is 33.2 µM [falling, single point].

In the case of `COC(=O)[C@@H]1[C@H]2C[C@@H]3c4[nH]c5ccccc5c4CCN3C[C@@H]2CC[C@@H]1O`, the z-score under setting [1] is 0.553, the z-score under setting [2] came to 0.924 and the z-score under setting [3] was -0.683.

On to `Cn1cc(-c2ccc3nnc(C(F)(F)c4ccc5ncccc5c4)n3n2)cn1`, for which the z-score runs as follows: under setting [1], 0.2; under setting [2], 0.37; under setting [3], 0.722.

For the compound `CCOC(=O)N[C@@H]1CC[C@@H]2[C@@H](C1)C[C@H]1C(=O)O[C@H](C)[C@H]1[C@@H]2C=Cc1ccc(-c2cccc(F)c2)cn1`, the z-score is, setting by setting: under setting [1], 0.588; under setting [2], 0.765; under setting [3], 0.582. Besides, the AC50 under setting [4] is 37.2 µM [falling, partial curve, poor fit].

`COc1cc(C(C)C)c(Oc2cnc(NC(CO)CO)nc2N)cc1I`: the z-score runs as follows: under setting [1], -0.461; under setting [2], -1.58; under setting [3], -0.242. Under setting [4], the AC50 was 2.35 µM [falling, full curve, poor fit].

On to `CCn1cc(C(=O)O)c(=O)c2ccc(C)nc21`, for which the z-score was 0.321 under setting [1], 0.32 under setting [2] and 0.872 under setting [3]. In addition, the AC50 under setting [4] is 0.00833 µM [rising, full curve].
